Results are given in words; binding and its absence hold for the method and conditions named. In cells and extracts the contact can be indirect. Binding can be weak; no strength is given.
Target: T1, Protein kinase D2 (human (endogenous in Jurkat)) (UniProt Q9BZL6)
T1 sequence: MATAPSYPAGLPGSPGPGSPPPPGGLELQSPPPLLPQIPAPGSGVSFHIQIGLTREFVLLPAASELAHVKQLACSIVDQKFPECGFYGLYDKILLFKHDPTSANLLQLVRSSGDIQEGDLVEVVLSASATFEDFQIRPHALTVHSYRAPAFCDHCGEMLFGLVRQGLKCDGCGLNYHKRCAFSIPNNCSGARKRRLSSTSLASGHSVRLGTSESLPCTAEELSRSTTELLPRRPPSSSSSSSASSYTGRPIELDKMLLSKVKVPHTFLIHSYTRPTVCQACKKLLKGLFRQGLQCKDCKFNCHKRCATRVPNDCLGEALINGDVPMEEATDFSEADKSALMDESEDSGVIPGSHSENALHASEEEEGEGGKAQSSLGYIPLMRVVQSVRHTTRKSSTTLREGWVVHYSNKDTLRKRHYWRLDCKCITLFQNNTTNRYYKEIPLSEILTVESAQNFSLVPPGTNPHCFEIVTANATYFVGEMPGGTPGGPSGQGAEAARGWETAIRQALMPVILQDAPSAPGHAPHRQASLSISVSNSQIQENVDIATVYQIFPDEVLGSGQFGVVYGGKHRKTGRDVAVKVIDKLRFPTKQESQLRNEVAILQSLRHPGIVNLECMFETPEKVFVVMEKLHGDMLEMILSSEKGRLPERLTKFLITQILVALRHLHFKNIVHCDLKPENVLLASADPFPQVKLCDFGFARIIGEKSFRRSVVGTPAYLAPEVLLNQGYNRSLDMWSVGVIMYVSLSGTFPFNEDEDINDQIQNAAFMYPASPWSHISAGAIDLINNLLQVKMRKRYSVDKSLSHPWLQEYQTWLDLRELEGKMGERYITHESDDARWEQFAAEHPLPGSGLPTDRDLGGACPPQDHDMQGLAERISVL
Assay: co-IP; Jurkat cells or GFP-SET-WT expressing Jurkat cells (1×10^7) stimulated with PMA (20 ng/ml) and ionomycin (2 µg/ml) for 30 min at 37°C and lysed; lysate immunoprecipitated with anti-PKD2 or anti-GFP antibody and Protein A beads

- binding: binds
Substance: SET protein (from UniProt Q01105-2)

From article PMC3522678
